In PMC6328465:
These are yes or no findings as the source states them, for the method shown. In cells and extracts the contact can be indirect. Some binding calls cover weakened binding; strength is not graded here.

Sequences of proteins named here, by UniProt entry; tags and fusion partners are left off.
UniProt Q13574: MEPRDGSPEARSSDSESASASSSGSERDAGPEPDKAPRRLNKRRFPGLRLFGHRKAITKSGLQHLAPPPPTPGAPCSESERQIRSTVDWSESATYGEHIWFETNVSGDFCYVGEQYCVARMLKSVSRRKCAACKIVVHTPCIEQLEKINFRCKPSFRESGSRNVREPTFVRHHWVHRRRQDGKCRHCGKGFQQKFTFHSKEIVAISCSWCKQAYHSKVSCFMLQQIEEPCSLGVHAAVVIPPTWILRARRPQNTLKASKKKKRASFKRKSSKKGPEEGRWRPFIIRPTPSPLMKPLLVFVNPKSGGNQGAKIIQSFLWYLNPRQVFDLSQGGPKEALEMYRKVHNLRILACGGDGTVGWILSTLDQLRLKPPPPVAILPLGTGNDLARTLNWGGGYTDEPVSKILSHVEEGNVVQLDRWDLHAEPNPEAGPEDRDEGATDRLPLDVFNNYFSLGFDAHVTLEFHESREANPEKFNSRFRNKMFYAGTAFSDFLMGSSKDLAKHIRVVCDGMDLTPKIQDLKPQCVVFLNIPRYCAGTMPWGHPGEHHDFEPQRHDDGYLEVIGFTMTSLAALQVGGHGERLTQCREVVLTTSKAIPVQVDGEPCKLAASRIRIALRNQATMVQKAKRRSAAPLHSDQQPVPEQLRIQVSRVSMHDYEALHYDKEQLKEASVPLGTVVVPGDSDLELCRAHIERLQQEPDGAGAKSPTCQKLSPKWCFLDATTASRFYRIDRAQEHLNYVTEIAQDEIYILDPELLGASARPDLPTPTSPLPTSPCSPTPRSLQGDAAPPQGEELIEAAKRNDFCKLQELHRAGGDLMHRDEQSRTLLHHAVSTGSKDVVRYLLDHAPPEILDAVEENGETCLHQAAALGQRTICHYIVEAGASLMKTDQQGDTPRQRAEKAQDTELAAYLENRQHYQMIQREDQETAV
UniProt P27361: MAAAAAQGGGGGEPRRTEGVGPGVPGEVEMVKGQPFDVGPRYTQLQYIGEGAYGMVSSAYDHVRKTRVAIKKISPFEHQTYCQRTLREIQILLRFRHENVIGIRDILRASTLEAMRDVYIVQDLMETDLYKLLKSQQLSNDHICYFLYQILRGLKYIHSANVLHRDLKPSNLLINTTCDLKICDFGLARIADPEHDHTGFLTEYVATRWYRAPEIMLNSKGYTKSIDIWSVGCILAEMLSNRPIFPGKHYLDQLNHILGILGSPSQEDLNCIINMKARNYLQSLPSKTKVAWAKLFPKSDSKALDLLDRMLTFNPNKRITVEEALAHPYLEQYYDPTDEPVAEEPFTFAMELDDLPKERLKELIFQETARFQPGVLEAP
UniProt P28482: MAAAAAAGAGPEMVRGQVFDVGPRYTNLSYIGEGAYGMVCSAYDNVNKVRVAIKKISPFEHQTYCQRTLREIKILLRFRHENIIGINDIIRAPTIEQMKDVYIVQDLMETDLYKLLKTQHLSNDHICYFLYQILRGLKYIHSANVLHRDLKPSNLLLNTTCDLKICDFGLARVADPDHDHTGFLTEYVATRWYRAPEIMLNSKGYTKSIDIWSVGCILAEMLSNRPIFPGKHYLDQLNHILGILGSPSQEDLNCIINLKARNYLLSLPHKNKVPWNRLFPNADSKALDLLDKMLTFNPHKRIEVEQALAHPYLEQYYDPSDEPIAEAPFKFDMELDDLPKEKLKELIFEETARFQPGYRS

Molecular target: 3 × FLAG-DGKZ (diacylglycerol kinase zeta) (UniProt Q13574)
Assay: co-IP; 3xFLAG-DGKZ immunoprecipitated from HOS cells on anti-FLAG magnetic beads, eluted by 3xFLAG peptide, SDS-PAGE and immunoblotting

binding | Substance
binds | ERK1 (from UniProt P27361 1-379) (enzyme)
binds | ERK2 (from UniProt P28482 1-360) (enzyme)
